Results are given in words; binding and its absence hold for the method and conditions named. In cells and extracts the contact can be indirect. Some entries that bind do so weakly or less than the wild type. Sequences can lack the tags named with a protein.

Protein sequences, listed by entry. Tags and fused reporters are not part of them.
UniProt P33334: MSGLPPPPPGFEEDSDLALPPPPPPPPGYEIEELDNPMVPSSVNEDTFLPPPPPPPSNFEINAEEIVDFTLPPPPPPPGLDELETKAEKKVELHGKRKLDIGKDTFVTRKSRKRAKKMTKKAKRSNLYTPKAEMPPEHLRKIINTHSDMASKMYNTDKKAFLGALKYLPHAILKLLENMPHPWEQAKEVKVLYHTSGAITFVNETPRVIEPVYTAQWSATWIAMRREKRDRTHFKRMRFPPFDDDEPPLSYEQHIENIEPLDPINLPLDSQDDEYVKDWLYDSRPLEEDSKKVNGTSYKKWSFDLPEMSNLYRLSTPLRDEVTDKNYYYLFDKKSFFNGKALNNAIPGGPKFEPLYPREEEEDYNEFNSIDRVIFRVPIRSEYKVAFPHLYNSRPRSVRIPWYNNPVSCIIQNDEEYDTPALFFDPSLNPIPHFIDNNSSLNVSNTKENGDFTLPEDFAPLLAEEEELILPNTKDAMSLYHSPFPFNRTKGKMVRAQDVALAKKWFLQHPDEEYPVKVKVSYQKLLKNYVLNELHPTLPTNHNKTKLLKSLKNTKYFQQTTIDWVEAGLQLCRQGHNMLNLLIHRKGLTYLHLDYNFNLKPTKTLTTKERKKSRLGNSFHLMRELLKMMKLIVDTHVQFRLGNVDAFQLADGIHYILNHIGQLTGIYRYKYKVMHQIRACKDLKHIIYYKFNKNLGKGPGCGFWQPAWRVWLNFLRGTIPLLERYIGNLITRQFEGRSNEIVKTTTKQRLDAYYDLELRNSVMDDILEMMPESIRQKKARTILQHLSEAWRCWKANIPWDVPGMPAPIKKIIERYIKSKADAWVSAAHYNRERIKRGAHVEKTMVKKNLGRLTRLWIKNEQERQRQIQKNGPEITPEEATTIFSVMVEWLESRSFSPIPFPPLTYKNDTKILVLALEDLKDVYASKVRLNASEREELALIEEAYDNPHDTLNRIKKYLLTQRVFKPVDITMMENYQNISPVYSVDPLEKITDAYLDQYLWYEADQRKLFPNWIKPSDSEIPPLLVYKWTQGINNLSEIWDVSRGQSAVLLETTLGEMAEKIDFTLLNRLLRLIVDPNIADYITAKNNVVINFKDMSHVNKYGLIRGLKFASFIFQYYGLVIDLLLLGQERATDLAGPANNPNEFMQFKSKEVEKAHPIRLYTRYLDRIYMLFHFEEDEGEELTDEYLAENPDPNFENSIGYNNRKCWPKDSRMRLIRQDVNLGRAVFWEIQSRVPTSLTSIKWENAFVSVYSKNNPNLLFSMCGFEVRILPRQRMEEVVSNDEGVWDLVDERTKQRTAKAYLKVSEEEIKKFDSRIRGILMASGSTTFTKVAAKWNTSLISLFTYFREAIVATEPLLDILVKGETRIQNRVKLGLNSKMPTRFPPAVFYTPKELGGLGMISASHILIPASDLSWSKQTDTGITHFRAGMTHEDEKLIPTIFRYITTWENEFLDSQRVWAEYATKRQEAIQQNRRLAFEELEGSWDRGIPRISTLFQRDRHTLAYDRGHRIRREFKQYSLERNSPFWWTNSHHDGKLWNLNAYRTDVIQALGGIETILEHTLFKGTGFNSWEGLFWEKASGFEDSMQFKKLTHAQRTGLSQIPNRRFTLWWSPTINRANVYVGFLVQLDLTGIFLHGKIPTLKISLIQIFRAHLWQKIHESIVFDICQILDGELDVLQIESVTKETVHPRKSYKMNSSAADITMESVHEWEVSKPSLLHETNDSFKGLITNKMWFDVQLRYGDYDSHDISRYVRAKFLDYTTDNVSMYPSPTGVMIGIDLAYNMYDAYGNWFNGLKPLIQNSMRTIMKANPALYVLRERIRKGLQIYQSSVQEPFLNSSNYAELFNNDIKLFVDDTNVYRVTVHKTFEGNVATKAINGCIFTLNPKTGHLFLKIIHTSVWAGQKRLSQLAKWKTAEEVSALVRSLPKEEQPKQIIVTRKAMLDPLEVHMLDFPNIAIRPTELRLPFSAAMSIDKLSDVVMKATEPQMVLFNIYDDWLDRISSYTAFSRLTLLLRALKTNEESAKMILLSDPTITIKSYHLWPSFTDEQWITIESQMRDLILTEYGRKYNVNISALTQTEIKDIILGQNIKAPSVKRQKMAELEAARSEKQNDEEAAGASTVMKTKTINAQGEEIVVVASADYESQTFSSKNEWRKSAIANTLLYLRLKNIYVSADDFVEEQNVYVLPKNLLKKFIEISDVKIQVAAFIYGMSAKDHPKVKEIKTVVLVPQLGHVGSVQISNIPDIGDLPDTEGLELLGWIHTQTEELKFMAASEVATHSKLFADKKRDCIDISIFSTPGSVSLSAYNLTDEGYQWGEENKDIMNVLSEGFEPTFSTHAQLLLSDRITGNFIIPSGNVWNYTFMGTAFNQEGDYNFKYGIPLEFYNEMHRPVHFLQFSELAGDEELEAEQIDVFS

The assay concerns the target Prp8 (S. cerevisiae (endogenous in the yeast strain)) (UniProt P33334). In words: co-IP; Prp40, Lea1-3HA or Prp8 pulled down with anti-Prp40, anti-HA or anti-Prp8 on Protein A/G Dynabeads from 1 mg of lysate protein of the Spt5-AID*-6Flag Lea1-3HA strain, 1 h at room temperature; lysis buffer 50 mM Tris-HCl pH 7.5, 150 mM NaCl, 0.2% NP-40; with or without RNase A (100 µg/mL); blot probed with anti-Flag; rabbit IgG as negative control.

B1: Spt5-AID*-6Flag (protein, UniProt P27692 1-1063)
chain: MSDNSDTNVSMQDHDQQFADPVVVPQSTDTKDENTSDKDTVDSGNVTTTESTERAESTSNIPPLDGEEKEAKSEPQQPEDNAETAATEQVSSSNGPATDDAQATLNTDSSEANEIVKKEEGSDERKRPREEDTKNSDGDTKDEGDNKDEDDDEDDDDDDDDEDDDDEAPTKRRRQERNRFLDIEAEVSDDEDEDEDEEDSELVREGFITHGDDEDDEASAPGARRDDRLHRQLDQDLNKTSEEDAQRLAKELRERYGRSSSKQYRAAAQDGYVPQRFLLPSVDTATIWGVRCRPGKEKELIRKLLKKKFNLDRAMGKKKLKILSIFQRDNYTGRIYIEAPKQSVIEKFCNGVPDIYISQKLLIPVQELPLLLKPNKSDDVALEEGSYVRIKRGIYKGDLAMVDQISENNLEVMLKIVPRLDYGKFDEIDPTTQQRKSRRPTFAHRAPPQLFNPTMALRLDQANLYKRDDRHFTYKNEDYIDGYLYKSFRIQHVETKNIQPTVEELARFGSKEGAVDLTSVSQSIKKAQAAKVTFQPGDRIEVLNGEQRGSKGIVTRTTKDIATIKLNGFTTPLEFPISTLRKIFEPGDHVTVINGEHQGDAGLVLMVEQGQVTFMSTQTSREVTITANNLSKSIDTTATSSEYALHDIVELSAKNVACIIQAGHDIFKVIDETGKVSTITKGSILSKINTARARVSSVDANGNEIKIGDTIVEKVGSRREGQVLYIQTQQIFVVSKKIVENAGVFVVNPSNVEAVASKDNMLSNKMDLSKMNPEIISKMGPPSSKTFQQPIQSRGGREVALGKTVRIRSAGYKGQLGIVKDVNGDKATVELHSKNKHITIDKHKLTYYNREGGEGITYDELVNRRGRVPQARMGPSYVSAPRNMATGGIAAGAAATSSGLSGGMTPGWSSFDGGKTPAVNAHGGSGGGGVSSWGGASTWGGQGNGGASAWGGAGGGASAWGGQGTGATSTWGGASAWGNKSSWGGASTWASGGESNGAMSTWGGTGDRSAYGGASTWGGNNNNKSTRDGGASAWGNQDDGNRSAWNNQGNKSNYGGNSTWGGH
As to B1, the binding entry is given as “binds”.

These data come from publication PMC6800482.
